PubChem BioAssay AID1508588 – Peter MacCallum Cancer Centre, 2020

- Screen: 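Genome-wide search for knock-downs that heighten vemurafenib action in melanoma cells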 (primary screen)
- Cells: human WM266.4 melanoma cells (BRAF V600 mutant)
- Reagents: siRNA pool against human genes, 40 nM
- Time to read-out: 96 h from transfection to read-out
- Challenge: vemurafenib 300 nM (about IC25), added 48 h after transfection, for 48 h; comparison arm got DMSO vehicle only
- Measured: 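Ratios to non-targeting siRNA for cell gain, counted as DAPI nuclei after minus before drug and averaged over two replicates, and for absorbance-read medium lactate per cell; both binned into fold-change classes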
- Scale: cell gain with vemurafenib: higher = more cell gain than with non-targeting siRNA; lactate per cell with vemurafenib: higher = more lactate made per cell
- Active means: 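a knock-down counts as enhancing when its fold-change classes with vehicle and with vemurafenib, taken together, show a stronger drug effect on cell gain or lactate per cell; exact class pairs not stated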
- Meaning of the calls: active = enhances vemurafenib effect; inactive = no enhancement seen
This is an unselected part of about 18,000 reagents. Of all reagents, 790 (4.4%) got an active call. 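Calls rest on a combination of fold-change classes in drug and vehicle arms, not all shown here.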

cell gain with vemurafenib	lactate per cell with vemurafenib	Call	gene knocked down
-0.02	1.58	inactive	DACT2 (dishevelled binding antagonist of beta catenin 2)
0.92	0.48	inactive	DTD1 (D-aminoacyl-tRNA deacylase 1)
0.22	2.08	inactive	SOAT2 (sterol O-acyltransferase 2)
0.49	1.21	inactive	PLS3 (plastin 3)
0.73	0.75	inactive	ERG (ETS transcription factor ERG)
0.92	0.82	inactive	TTC21B (tetratricopeptide repeat domain 21B)
0.35	1.04	inactive	ZNF99 (zinc finger protein 99)
0.54	0.42	inactive	CMTR2 (cap methyltransferase 2)
1.25	0.64	inactive	CLEC16A (C-type lectin domain containing 16A)
0.54	1.39	inactive	USP35 (ubiquitin specific peptidase 35)
0.9	0.52	inactive	SLC25A33
-0.03	2.84	inactive	LIMS2 (LIM zinc finger domain containing 2)
0.13	0.36	active	NPEPL1 (aminopeptidase like 1)
0.63	0.7	inactive	ARHGAP11B (Rho GTPase activating protein 11B)
0.95	0.32	inactive	MAP2K2 (mitogen-activated protein kinase kinase 2)
0.48	0.9	inactive	TBP (TATA-box binding protein)
1.22	0.53	inactive	GLUD1 (glutamate dehydrogenase 1)
0.69	1.9	inactive	CFC1B (cryptic, EGF-CFC family member 1B)
1.62	0.76	inactive	TVP23B (trans-golgi network vesicle protein 23 homolog B)
0.01	1.6	active	OR4C3 (olfactory receptor family 4 subfamily C member 3)
0.58	0.48	inactive	CCM2L (CCM2 like scaffold protein)
0.67	1.27	inactive	NOC3L (NOC3 like DNA replication regulator)
0.72	0.6	inactive	FASTKD5 (FASTK mitochondrial RNA regulator 5)
0.49	1.41	inactive	ITGAD (integrin subunit alpha D)
0.57	1.27	inactive	HES7 (hes family bHLH transcription factor 7)
0.21	1.32	inactive	TLR6 (toll like receptor 6)
0.62	0.72	inactive	SERPINA3 (serpin family A member 3)
0.34	1.06	inactive	CHIA (chitinase acidic)
0.68	0.86	inactive	PDE6B (phosphodiesterase 6B)
0.75	0.92	inactive	LIPT1 (lipoyltransferase 1)
0.28	1.7	inactive	FASLG (Fas ligand)
0.52	0.54	inactive	PNLIP (pancreatic lipase)
0.28	2.1	inactive	TRIM47 (tripartite motif containing 47)
0.92	0.88	inactive	BEGAIN (brain enriched guanylate kinase associated)
1	0.66	inactive	TMEM131L (transmembrane 131 like)
0.86	0.47	active	H2AC14 (H2A clustered histone 14)
0.71	1.29	inactive	KCNC2 (potassium voltage-gated channel subfamily C member 2)
0.45	0.89	inactive	ATP4B (ATPase H+/K+ transporting subunit beta)
0.47	1.05	inactive	HERC3 (HECT and RLD domain containing E3 ubiquitin protein ligase 3)
0.48	1.31	inactive	P4HA3 (prolyl 4-hydroxylase subunit alpha 3)
0.65	0.99	inactive	ARHGEF17 (Rho guanine nucleotide exchange factor 17)
0.74	1.08	inactive	HRCT1 (histidine rich carboxyl terminus 1)
0.62	0.79	inactive	SNX5 (sorting nexin 5)
0.82	0.46	active	MAPK6 (mitogen-activated protein kinase 6)
0.4	0.4	inactive	OR2G2 (olfactory receptor family 2 subfamily G member 2)
0.14	0.42	active	C10orf120 (chromosome 10 open reading frame 120)
0.83	0.96	inactive	MTERF2 (mitochondrial transcription termination factor 2)
0.51	0.92	inactive	OTOA (otoancorin)
0.48	1.48	inactive	OR8K5 (olfactory receptor family 8 subfamily K member 5)
0.77	0.58	inactive	LEMD1 (LEM domain containing 1)
0.55	0.84	inactive	ATP2A3
0.73	0.82	inactive	SPDYE3 (speedy/RINGO cell cycle regulator family member E3)
0.32	0.93	inactive	FYCO1 (FYVE and coiled-coil domain autophagy adaptor 1)
0.94	0.96	inactive	TENM3 (teneurin transmembrane protein 3)
1.44	1.33	inactive	CHMP4B (charged multivesicular body protein 4B)
0.47	0.3	inactive	DSG1 (desmoglein 1)
0.89	1.2	inactive	PPP6R3 (protein phosphatase 6 regulatory subunit 3)
0.54	0.77	inactive	OR10P1 (olfactory receptor family 10 subfamily P member 1)
0.43	0.68	inactive	IRX2 (iroquois homeobox 2)
0.9	0.82	inactive	ZNF137P (zinc finger protein 137, pseudogene)
0.58	1.4	inactive	DFFB (DNA fragmentation factor subunit beta)
0.9	0.3	inactive	MYH11 (myosin heavy chain 11)
0.66	1.14	inactive	TNRC6B (trinucleotide repeat containing adaptor 6B)
0.51	0.85	inactive	CD300LF (CD300 molecule like family member f)
0.71	0.48	active	N4BP1 (NEDD4 binding protein 1)
0.83	0.8	inactive	BCL2L10 (BCL2 like 10)
1.26	0.68	inactive	OR4P4 (olfactory receptor family 4 subfamily P member 4)
1.3	0.55	inactive	TCF20 (transcription factor 20)
0.41	0.61	inactive	OR5D14 (olfactory receptor family 5 subfamily D member 14)
0.64	1.01	inactive	SLC19A2
0.56	1.33	inactive	CFAP300 (cilia and flagella associated protein 300)
1.11	0.62	inactive	SEMG1 (semenogelin 1)
0.73	0.3	inactive	BBS10 (Bardet-Biedl syndrome 10)
0.18	1.44	inactive	CCND1 (cyclin D1)
0.45	1.14	inactive	SCGB1A1 (secretoglobin family 1A member 1)
0.88	0.76	inactive	CRH (corticotropin releasing hormone)
0.12	3.07	inactive	OR2Z1 (olfactory receptor family 2 subfamily Z member 1)
0.57	0.7	inactive	PAFAH1B2
0.66	0.64	inactive	EEF1AKMT2 (EEF1A lysine methyltransferase 2)
1.05	0.41	inactive	TAF13 (TATA-box binding protein associated factor 13)
0.53	1.48	inactive	ARHGAP29 (Rho GTPase activating protein 29)
0.36	1.14	inactive	GPAT4 (glycerol-3-phosphate acyltransferase 4)
0.8	1.06	inactive	CTNS (cystinosin, lysosomal cystine transporter)
0.73	0.88	inactive	DUSP11 (dual specificity phosphatase 11)

Look-ups from the list.
TRIM47 (tripartite motif containing 47), cell gain with vemurafenib → 0.28
PPP6R3 (protein phosphatase 6 regulatory subunit 3), Call: inactive
N4BP1 (NEDD4 binding protein 1), lactate per cell with vemurafenib: 0.48
Value for PLS3 (plastin 3) in “Call”: inactive
For “cell gain with vemurafenib”, CD300LF (CD300 molecule like family member f) has 0.51
NOC3L (NOC3 like DNA replication regulator), Call → inactive
